Assay results published in patent US20220022457A1, “Microbicide Ammonium-Imidazolium Oligomers and Their Anti-Fungal Compositions” (AGENCY FOR SCIENCE, TECHNOLOGY AND RESEARCH, priority 2018, published 2022).
Some results were stated once for a whole list of compounds, not compound by compound. At least one structure is not confirmed: it was looked up by name or label, or the drawing left a doubt.

Tested on: Candida albicans (ATCC 10231, fungus)
Assay: Minimum inhibitory concentration, microdilution assay
Type: cell-based
Settings: stated as the lowest MIC
Method: Staphylococcus aureus (ATCC 6538, Gram-positive), Escherichia coli (ATCC 8739, Gram-negative), Pseudomonas aeruginosa (ATCC 9027, Gram-negative), and Candida albicans (ATCC 10231, fungus) were used as representative microorganisms to challenge the antimicrobial functions of the oligomers. All bacteria and fungus were frozen at -80° C., and were grown overnight at 37° C. in Mueller Hinton Broth (MHB, BD Singapore) prior to experiments. Fungus was grown overnight at 22° C. in Yeast Mold Broth (YMB, BD Singapore). […] […] […] Medium solution containing microbial cells alone were used as control (100% microbial growth). The assay was performed in four replicates and the experiments were repeated at least two times.

| SMILES | MIC against C. albicans [µg/mL] |
| --- | --- |
| CCCCCCCC[n+]1ccn(Cc2ccc(C[N+]34CC[N+](C/C=C/C[N+]56CC[N+](Cc7ccc(Cn8cc[n+](CCCCCCCC)c8)cc7)(CC5)CC6)(CC3)CC4)cc2)c1.[Br-].[Br-].[Br-].[Br-].[Br-].[Br-] [IDPBX8] | 2 to 8 |
| CCCCCCCC[n+]1ccn(Cc2ccc(Cn3cc[n+](Cc4ccc(C[N+]56CC[N+](C/C=C/C[N+]78CC[N+](Cc9ccc(C[n+]%10ccn(Cc%11ccc(Cn%12cc[n+](CCCCCCCC)c%12)cc%11)c%10)cc9)(CC7)CC8)(CC5)CC6)cc4)c3)cc2)c1.[Br-].[Br-].[Br-].[Br-].[Br-].[Br-].[Br-].[Br-] [IIDPPBX8] | 2 to 8 |
